Results published in patent US20230041692A1 (THE UNIVERSITY OF SYDNEY, priority 2019, published 2023).
Where a sequence shows no end group, the ends are not given.

Test: peptide made by a vendor
Conditions: whole synthesis, TFA salt

APFLLEDPANQFLRLKR
final purity (method not given): 99.9%
